# Reference: US10040838B2, “CRHR2 peptide agonists and uses thereof” (JANSSEN PHARMACEUTICA NV, priority 2008, dated 2018)
# Part of at least one peptide drawing is inferred or uncertain, most often the ends. Some entries repeat one wording, which the source may state once for all of them. No end group written: not given here.
# Molecular target: T1, human CRHR2 (Homo sapiens, UniProt Q13324)
# T1 construct: expressed in transfected cells
# T1 sequence (Q13324 1-411): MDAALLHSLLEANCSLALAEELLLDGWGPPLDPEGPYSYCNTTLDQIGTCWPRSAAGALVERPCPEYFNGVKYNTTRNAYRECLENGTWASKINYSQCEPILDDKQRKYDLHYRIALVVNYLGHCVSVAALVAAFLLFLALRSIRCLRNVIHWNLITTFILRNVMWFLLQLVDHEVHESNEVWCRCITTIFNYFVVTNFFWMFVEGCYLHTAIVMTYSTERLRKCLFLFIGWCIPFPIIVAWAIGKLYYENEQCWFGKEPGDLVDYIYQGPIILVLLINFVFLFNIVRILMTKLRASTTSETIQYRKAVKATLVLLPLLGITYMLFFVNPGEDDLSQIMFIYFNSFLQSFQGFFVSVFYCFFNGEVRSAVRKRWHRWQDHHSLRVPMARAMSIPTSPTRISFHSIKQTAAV
# Experiment: cAMP assay in h-CRHR2 transfected SK-N-MC cells
# Assay type: cell-based
# Settings: N-terminal deletions
# Procedure: The concentration required for 50% maximum effect (A50) was 0.4 nM.
# Human CRHR1 (accession number X72304) or CRHR2 (accession number U34587) were cloned into pcDNA3.1/Zeo expression vector and stably transfected into SK-N-MC cells by electroporation. Cells were maintained in MEM w/Earl's Salt with 10% FBS, 50 I.U. penicillin, 50 μg/ml streptomycin, 2 mM L-glutamine, 1 mM sodium pyruvate and 0.1 mM nonessential amino acids, 600 μg/ml G418. Cells were grown at 37° C. in 5% CO2.
# Cells were plated in 96-well tissue culture dishes (Biocoat from BD Biosciences) overnight at 50,000 cell/well. Cells were washed with PBS then resuspended in DMEM F-12 without phenol red, containing 10 μM isobutylmethylxanthine (IBMX). Cells were incubated with the peptides at concentrations ranging from 1 pM to 10 μM for 60 min at 37° Celsius. […] Forskolin (10 μM), a direct stimulant of adenylate cyclase, was used as positive control. The assays were stopped by the addition of 0.5 M HCl and mixing by orbital rotation for 2 h at 4° Celsius. […]
# Media containing released intracellular cAMP was transferred to a 96-well flash plate coated with scintillant fluid containing an anti-cAMP antibody. […] [^125I]-cAMP was measured on a TopCount scintillation counter (Perkin Elmer, MA, U.S.A).
# Individual agonist concentration-response curve data were fitted to the Hill equation, see formula below, using GraphPad Prism (Graphpad Software, La Jolla, Calif., U.S.A.), to provide estimates of agonist concentration needed to generate one-half maximal response (A50), and the maximal asymptote (α) and Hill slope (nH) parameters. In this equation, [A] is the agonist concentration and E is the measured effect:
# For display purposes the mean fitted parameter estimates were used to generate a single E/[A] curve shown superimposed on the mean experimental data. Potency estimates for agonists, pA50, are expressed as the negative logarithm of the midpoint of each curve and listed with their standard error of measurement (SEM). […]
row,Substance,agonist activity
1,"DVPTNIMNLLFNIAKAKNLRAQAAANAHLMAQI-NH2 [SEQ ID NO: 112, DVPTNIMNLLFNIAKAKNLRAQAAANAHLMAQI-NH2]",complete loss of agonist activity
2,"LDVPTNIMNLLFNIAKAKNLRAQAAANAHLMAQI-NH2 [SEQ ID NO: 111, LDVPTNIMNLLFNIAKAKNLRAQAAANAHLMAQI-NH2]",complete loss of agonist activity
3,"SLDVPTNIMNLLFNIAKAKNLRAQAAANAHLMAQI-NH2 [SEQ ID NO: 110, SLDVPTNIMNLLFNIAKAKNLRAQAAANAHLMAQI-NH2]",complete loss of agonist activity
